Measured values as given in the supplement of paper PMC10338343.
± gives the standard deviation. Some of the results follow. Many entries were measured with a wide error.

Each sequence was assayed on EfPiwi piRISC loaded with L1MC piRNA (26 nt) (assay: pre-steady-state target cleavage rate (min^-1); guide: L1MC piRNA 5'p-UAACUAAAUACUAUGCAAGCUGUAGG; MIWI and MILI are mouse PIWI proteins and EfPiwi is from a freshwater sponge; tags in brackets are library labels; higher = faster piRNA-guided slicing of the target). Conditions: auxiliary factor: none (no Gtsf1).
Outline: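 Cleave-'n-Seq measured uncleaved targets by sequencing after a transcribed, DNA-blocked target RNA library […] was mixed with 1 nM active affinity-purified piRISC holding one synthetic guide, with or without 500 nM GTSF1 partner protein, at 33 °C in HEPES–potassium acetate buffer for 0–8 or 0–960 min. Counts were normalised to depth and to weakly complementary targets, three trials were pooled, and k3 was capped at 0.0001 min^-1. A burst-and-steady-state fit gave the pre-steady-state cleavage rate.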

| Sequence | pre-steady-state target cleavage rate |
| --- | --- |
| UCCUCCUACAGCUUGCAUUCUAUUUACAAA | 0.000153 ± 0.026 |
| UCCUGGAUGAGCUUGCGAUAGUAUUUAGUUA | 0.0011 ± 0.0088 |
| UCCUGGAACAGCUUCGUUAGUAUUUAGAAA | 0.00033 ± 0.018 |
| UCCUGGAACAGCUUGCAUAAUAUUUAGUUA | 0.00189 ± 0.0072 |
